Data as given in the supplement of paper PMC10470496.
Where “and” joins values, the source holds several entries; their conditions need not be identical. Equal values may be shown once. Where a name gives a salt, the structure may show the parent alone. The list shows a part of the results. Many values rest on one well or one pass, so single values are uncertain.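 The strains were three CDC resistance-bank clinical C. auris isolates from clades III, IV and I, cultured in RPMI-1640 at 35°C. Growth was background-corrected OD600 versus vehicle-only wells on the same plate. A hit needed >50% inhibition in two or more strains plus a plate-corrected B-score exceeding 0.1.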

Columns and labels:
Test in all cases: growth relative to vehicle control (OD600 ratio) (fraction); higher = less inhibition
Settings in all cases: 24 h
C. auris AR-384 = tested on: C. auris AR-384
C. auris AR-386 = tested on: C. auris AR-386
C. auris AR-387 = tested on: C. auris AR-387

| SMILES | growth (C. auris AR-384; 1 µM) | growth (C. auris AR-384; 10 µM) | growth (C. auris AR-386; 1 µM) | growth (C. auris AR-386; 10 µM) | growth (C. auris AR-387; 1 µM) | growth (C. auris AR-387; 10 µM) |
| --- | --- | --- | --- | --- | --- | --- |
| O=[N+]([O-])c1ccc(O)c2ncccc12 [Nitroxoline] | 0.8 | 0.26 | 0.6 | 0.08 | 0.04 | 0.04 |
| COc1cnc(NS(=O)(=O)c2ccc(N)cc2)nc1 [Sulfameter] | 0.73 | 1.45 | 1.36 | 0.81 | 0.89 | 0.86 |
| O=C1N=C(O)NC1(c1ccccc1)c1ccccc1 [Phenytoin Sodium] | 0.59 | 0.73 | 0.7 | 0.73 | 0.82 | 0.99 |
| COc1ccc2c(c1)c(CC(=O)O)c(C)n2C(=O)c1ccc(Cl)cc1 [Indomethacin] | 1.14 | 1.56 | 1.09 | 0.93 | 0.76 | 0.86 |
| CCOC(=O)CC(=O)N1CCSC1COc1ccccc1OC (configuration not stated) [Moguisteine] | 1.09 | 1.28 | 1.34 | 1.29 | 1.36 | 1.18 |
| C[N+](C)(C)CCO.[Cl-] [Choline Chloride] | 0.9 | 1.26 | 0.94 | 1.17 | 1.08 | 1.04 |
| CCn1cc(C(=O)O)c(=O)c2cnc(N3CCCC3)nc21 [Piromidic Acid] | 0.92 | 0.65 | 0.82 | 0.56 | 0.52 | 0.61 |
| CCC1(c2ccccc2)C(=O)NCNC1=O [Primidone] | 0.85 | 0.89 | 0.6 | 0.82 | 0.82 | 0.8 |
| Cc1ccc(C)c(OCCCC(C)(C)C(=O)O)c1 [Gemfibrozil] | 1.24 | 0.91 | 0.89 | 1.32 | 0.88 | 1.03 |
| CCS(=O)(=O)N1CC(CC#N)(n2cc(-c3ncnc4[nH]ccc34)cn2)C1 | 0.94 | 0.78 | 0.48 | 0.84 | 0.83 | 1.06 |
| CCOC(=O)C1=C(C)NC(C)=C(C(=O)OC)C1c1cccc(Cl)c1Cl (configuration not stated) [Felodipine] | 0.93 | 0.98 | 1.31 | 1.68 | 1.38 | 1.22 |
| CCCCOc1ccc(CC(=O)NO)cc1 [Bufexamac] | 0.89 | 0.97 | 1.05 | 1.03 | 0.63 | 0.96 |
| CCn1cc(C(=O)O)c(=O)c2cc(F)c(N3CCN(C)CC3)cc21 [Pefloxacin Mesylate] | 0.59 | 0.44 | 0.64 | 0.85 | 0.67 | 0.64 |
| CCN(CC)C(=O)/C(C#N)=C/c1cc(O)c(O)c([N+](=O)[O-])c1 [Entacapone] | 0.8 | 0.8 | 1.26 | 0.64 | 0.63 | 0.87 |
| N[C@@H]1CN(c2c(F)cc3c(=O)c(C(=O)O)cn([C@@H]4C[C@@H]4F)c3c2Cl)CC12CC2 [Sitafloxacin Hydrate] | 0.92 | 0.83 | 0.73 | 0.7 | 0.71 | 0.59 |
| Nc1nc(=O)c2c([nH]1)NCC(CNc1ccc(C(=O)N[C@@H](CCC(=O)O)C(=O)O)cc1)N2C=O (some centres not stated) [Leucovorin Calcium Pentahydrate] | 0.62 | 0.78 | 0.62 | 1.07 | 0.77 | 0.78 |
| CCCCCCOC(=O)NC(=N)c1ccc(NCc2nc3cc(C(=O)N(CCC(=O)OCC)c4ccccn4)ccc3n2C)cc1 [Dabigatran Etexilate] | 0.83 | 0.8 | 0.97 | 0.87 | 0.64 | 0.85 |
| CC(=O)c1c(C)c2cnc(Nc3ccc(N4CCNCC4)cn3)nc2n(C2CCCC2)c1=O | 0.67 and 1.18 | 1.19 | 0.87 and 0.98 | 1.13 and 1.39 | 0.8 and 1.02 | 1.18 and 1.01 |
| COc1ccc(CN(CCN(C)C)c2ccccn2)cc1 [Pyrilamine Maleate] | 1.05 | 0.81 | 0.86 | 0.88 | 0.96 | 1.21 |
| CC(C[N+](C)(C)C)OC(N)=O (configuration not stated) [Bethanechol chloride] | 0.81 | 0.8 | 0.88 | 1.13 | 0.93 | 1.11 |
| N=C(N)NC(=N)N1CCOCC1 [Moroxydine HCl] | 0.86 | 1.01 | 0.76 | 1.15 | 0.97 | 0.96 |
| CNC(=C[N+](=O)[O-])NCCSCc1csc(CN(C)C)n1 [Nizatidine] | 0.96 | 1.09 | 1.25 | 0.95 | 1.16 | 0.99 |

Reprinted at random: 2 records from the list, in no set order.

| SMILES | growth (C. auris AR-384; 1 µM) | growth (C. auris AR-384; 10 µM) | growth (C. auris AR-386; 1 µM) | growth (C. auris AR-386; 10 µM) | growth (C. auris AR-387; 1 µM) | growth (C. auris AR-387; 10 µM) |
| --- | --- | --- | --- | --- | --- | --- |
| CC(C[N+](C)(C)C)OC(N)=O (configuration not stated) [Bethanechol chloride] | 0.81 | 0.8 | 0.88 | 1.13 | 0.93 | 1.11 |
| CCOC(=O)CC(=O)N1CCSC1COc1ccccc1OC (configuration not stated) [Moguisteine] | 1.09 | 1.28 | 1.34 | 1.29 | 1.36 | 1.18 |
